# The other results are listed elsewhere or left out. Shown are side measurements of this screen, not its main read-out; they come without a call. Most of these compounds were active or inconclusive in the main read-out, so they are no random draw. The note in brackets gives the kind of curve behind each potency; many fits are weak.
# Test: qHTS Assay for Lipid Storage Modulators in Drosophila S3 Cells;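 on cell number change: cells counted by Cell Tracker Red CMTPX staining in the red channel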
# Settings: BODIPY lipid droplet fluorescence, 18-24 h; for cell number change: measured here: cell count max response, cells fed with added oleic acid
# In short: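 Laser-scanning cytometry quantifies lipid droplet accumulation (500–530 nm total intensity; droplet/cell object ratio) in oleic acid-fed (400 uM added) Drosophila S3 cells treated with a concentration series. 20 uM Triacsin C defined 100% inhibition.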
# [1] = measured here: cell number channel AC50, cells fed with added oleic acid
# [2] = measured here: lipid fluorescence (Fed channel) AC50, cells fed with added oleic acid
SMILES,cell number change [%],AC50 [1],AC50 [2]
Cc1ccccc1N(CC(=O)NC1CCCCC1)C(=O)CNC(=O)c1cccs1,-19,"0.13 µM [falling, full curve, poor fit]","29.1 µM [falling, partial curve, poor fit]"
CC1(C(=O)N2CCC(CO)(Cc3cccc(C(F)(F)F)c3)CC2)CC1,9.84,–,–
Cc1ccc(N(CC(O)CN2CCCC2)S(=O)(=O)c2ccccc2)cc1 (stereo not drawn),5.67,–,"5.17 µM [falling, single point]"
CCOC(=O)c1nnn(-c2nonc2N)c1-c1ccc(C)cc1,-17.8,–,"0.731 µM [falling, full curve, poor fit]"
COc1cccc(-c2cc(C(=O)O)no2)c1,-23.8,–,"29.1 µM [falling, single point]"
CC(C)(C)c1ccc(C2(C)NC(=O)N(CC(=O)NCc3cccs3)C2=O)cc1 (stereo not drawn),–,–,"13 µM [falling, partial curve]"
Cc1c(C(=O)NCc2nnc(-c3ccccc3)o2)oc2c(F)cccc12,-6.23,–,"25.9 µM [falling, single point]"
C/C(=N\NC(=O)Cn1c(-c2ccccn2)nc2ccccc21)c1ccccc1,34.7,"29.1 µM [rising, single point]",–
O=C1C=C(c2ccc(-c3ccccc3)cc2)C[C@@H](c2ccc3c(c2)OCO3)C1,19.9,"0.00461 µM [falling, full curve, poor fit]","4.61 µM [rising, single point]"
CCC(C(=O)OCC(=O)Nc1cccc(S(=O)(=O)NC2=NCCCCC2)c1)c1ccccc1 (stereo not drawn),-24.5,–,"0.651 µM [falling, partial curve, poor fit]"
Cc1ccc(OCC(=O)Nc2c(C)ccc3nsnc23)cc1,-7.08,–,–
O=C(CSc1ccc(-c2nc3ccccc3[nH]2)cn1)Nc1ccc(S(=O)(=O)N2CCCC2)cc1,-6.79,–,"18.4 µM [falling, single point]"
Cc1ccc(Cl)c2c(N=Nc3ccccc3)c(O)[nH]c12,17.7,–,"0.259 µM [falling, full curve]"
CCOC(=O)C(NCc1ccc(F)cc1)(NC(=O)c1ccccc1)C(F)(F)F (stereo not drawn),–,–,"6.51 µM [falling, full curve, poor fit]"
CC(C)(C)OC(=O)N1CCC[C@H]1C(=O)NCc1ccc(Cl)cc1Cl,–,"0.0058 µM [falling, full curve, poor fit]",–
Cc1cccc(Oc2ccc(NC(=O)c3ccccc3C(=O)O)cc2)c1,17.4,–,"6.51 µM [rising, full curve, poor fit]"
Cc1ccccc1C(=O)c1c[nH]c(C(=O)N2CCN(c3ccccc3F)CC2)c1,42.6,"8.2 µM [rising, single point]",–
O=C(O)CCn1c(CO)nc2ccccc21,8.36,–,–
Cc1cccc(C)c1OCCOCCN1CCN(C)CC1,-14.1,–,"0.00461 µM [falling, full curve, poor fit]"
COC(=O)c1c(C)[nH]c(C(=O)C(C)Sc2nnc(-c3cc(OC)c(OC)c(OC)c3)o2)c1C (stereo not drawn),1.03,–,–

SMILES,cell number change [%],AC50 [1],AC50 [2]
Cn1c(=O)n(CCc2ccccc2)c(=O)c2c1ncn2Cc1ccccc1,–,"2.06 µM [rising, partial curve]","2.31 µM [rising, partial curve]"
CCN(CC)C(=O)Oc1ccc(Br)c2ccccc12,26.6,"3.66 µM [rising, full curve, poor fit]","29.1 µM [rising, single point]"
O=c1c2ccccc2nc2c3ccccc3c(NCc3ccco3)nn12,127,"0.291 µM [rising, full curve]","7.31 µM [rising, partial curve, poor fit]"
CCOC(=O)CNC(=S)n1ncnc1N,-0.662,"0.291 µM [rising, partial curve, poor fit]","0.461 µM [rising, partial curve, poor fit]"
CCOc1cc(C2C(C#N)=C(N)OC(C)=C2C(C)=O)c(Br)c(Br)c1OC(C)C (stereo not drawn),-34.9,"18.4 µM [falling, single point]","29.1 µM [falling, single point]"
O=C(/C=C/c1cccc([N+](=O)[O-])c1)NCCSCc1ccccc1Cl,19.4,–,–
Cc1ccc([N+](=O)[O-])cc1S(=O)(=O)Nc1ccc(C(=O)NCC2CCCO2)cc1 (stereo not drawn),-2.63,–,"0.259 µM [falling, full curve, poor fit]"
Cc1cc(C)c(OCC(=O)NCC2COc3ccccc3O2)c(C)c1 (stereo not drawn),-17.4,–,–
CCN(CC)CCCNC(=O)c1ccccc1NC(=O)C1=CSCCO1,-20.4,"3.66 µM [falling, single point]",–
O=C(c1ccc(CNc2c(N3CCCC3)c(=O)c2=O)cc1)N1CCc2ccccc2C1,-37.5,"9.2 µM [falling, partial curve, poor fit]",–
Cc1cc(=O)nc2c3ccccc3n(CC(=O)NCCCN3CCCCC3C)n12 (stereo not drawn),-9.13,–,–
COc1ccc(Cl)cc1NC(=O)CSc1nnc(CNC(=O)c2cccs2)o1,-6.8,–,–
Cc1ccc(OCc2cc(C(=O)N(C)CCc3ccccn3)no2)cc1C,-43.7,"1.16 µM [falling, partial curve, poor fit]","25.9 µM [falling, partial curve, poor fit]"
O=C(COc1cc2oc(=O)cc(-c3ccccc3)c2cc1Cl)NC(Cc1c[nH]c2ccc(O)cc12)C(=O)O (stereo not drawn),23.6,–,"3.66 µM [rising, single point]"
CCn1c(COc2ccccc2)nnc1SCC(=O)C(C)(C)C,-20.9,–,"29.1 µM [falling, single point]"
Cn1cc(Cl)c(C(=O)NNC(=S)NC2CCCCC2)n1,-1.71,–,"2.06 µM [rising, partial curve]"
CCN(CC)c1ccc(/C=N/NC(=O)c2c(-c3ccccc3)noc2C)cc1,20,–,"2.31 µM [rising, partial curve]"
CCCNC(=O)CS(=O)(=O)Cc1nc(-c2cccc(OC)c2)oc1C,–,"6.51 µM [rising, single point]",–
C=CCn1c(SCC(=O)Nc2c(C)cccc2C)nnc1-c1ccncc1,–,–,"1.64 µM [rising, partial curve]"
COc1ccc(CNC(=O)CCN2C(=O)c3ccccc3C2=O)cc1OC,14.5,"0.116 µM [rising, full curve, poor fit]","1.16 µM [rising, full curve]"

# A draw from above in order of molar mass, ascending:
SMILES,cell number change [%],AC50 [1],AC50 [2]
CCN(CC)C(=O)Oc1ccc(Br)c2ccccc12,26.6,"3.66 µM [rising, full curve, poor fit]","29.1 µM [rising, single point]"
Cc1cc(C)c(OCC(=O)NCC2COc3ccccc3O2)c(C)c1 (stereo not drawn),-17.4,–,–
Cc1ccc(OCc2cc(C(=O)N(C)CCc3ccccn3)no2)cc1C,-43.7,"1.16 µM [falling, partial curve, poor fit]","25.9 µM [falling, partial curve, poor fit]"
CCN(CC)c1ccc(/C=N/NC(=O)c2c(-c3ccccc3)noc2C)cc1,20,–,"2.31 µM [rising, partial curve]"
O=C(COc1cc2oc(=O)cc(-c3ccccc3)c2cc1Cl)NC(Cc1c[nH]c2ccc(O)cc12)C(=O)O (stereo not drawn),23.6,–,"3.66 µM [rising, single point]"

# Following part

SMILES,cell number change [%],AC50 [1],AC50 [2]
COCCn1c(SCC(=O)NCc2ccc3c(c2)OCO3)nc2ccccc2c1=O,23.8,"3.66 µM [rising, single point]",–
O=C(N/N=C/c1cccc(OC(=O)c2ccccc2Cl)c1)c1cccnc1,-37.1,"14.6 µM [falling, single point]",–
C=CCN(Cc1nc(-c2ccc(OC)cc2)no1)C(=O)c1ccc2c(c1)OCO2,-4.58,–,"1.16 µM [falling, single point]"
O=C(CCN1C(=O)/C(=C/c2ccccc2F)SC1=S)NCCCn1ccnc1,-56.8,–,"29.1 µM [falling, single point]"
CCCOc1ccc(C(=O)NNC(=O)CCNC(=O)c2ccco2)cc1OC,125,"29.1 µM [rising, single point]","0.184 µM [rising, full curve]"
O=C(CSc1nnc(Nc2ccccc2)s1)NCc1ccco1,-13.7,–,"7.31 µM [rising, single point]"
COc1cc(CNC2CCCC2)cc(Cl)c1OCc1ccccc1Cl,-46.3,"8.2 µM [falling, partial curve]","7.31 µM [falling, partial curve, poor fit]"
O=C1C2C3C=CC(C3)C2C(=O)N1c1ccc2c(c1)CCC2 (stereo not drawn),31.9,"2.31 µM [rising, full curve, poor fit]","4.61 µM [rising, partial curve, poor fit]"
CC(C)(C)NC(=O)C(c1ccc(F)cc1)N(Cc1ccco1)C(=O)CCC(=O)Nc1ccccn1 (stereo not drawn),-2.86,–,–
CN(C)S(=O)(=O)c1cccc(NC(=O)COC(=O)C2(c3ccccc3F)CCCC2)c1,–,–,"9.2 µM [falling, partial curve]"
COc1ccc(OC)c(CCNC(=O)CCn2ccc3cc(S(=O)(=O)N4CCCC4)ccc32)c1,-0.33,–,–
CCN1c2ccccc2N(C)C1(C)c1ccccc1 (stereo not drawn),-53.6,"13 µM [falling, partial curve]","11.6 µM [falling, partial curve]"
O=C(NCc1ccc(Cl)cc1)C(=O)c1c[nH]c2ccccc12,-12.4,–,–
Cc1ccc(Cl)cc1N(CC(=O)N1CCOCC1)S(C)(=O)=O,28.5,–,"29.1 µM [rising, single point]"
CCOc1ccccc1NC(=O)CN1C(=O)C(C)SC(C)C1=O (stereo not drawn),1.82,–,–
O=C(NC1CCCCC1)N1CCN(c2ccccc2Cl)CC1,-8.91,–,"29.1 µM [falling, single point]"
O=C(CN(C(=O)Cn1nnc(-c2cccs2)n1)c1ccc2c(c1)OCCO2)NCC1CCCO1 (stereo not drawn),-25.2,"3.66 µM [falling, full curve, poor fit]","29.1 µM [rising, single point]"
O=C(Nc1ccccc1)c1cc2ccccc2[nH]1,17.2,–,"16.4 µM [rising, single point]"
CC1CN(Cc2cc(=O)[nH]c(C(C)C)n2)CC(C)O1 (stereo not drawn),-7.46,–,"0.116 µM [falling, full curve, poor fit]"
